The record followed here is the supplement of paper PMC4604168 (melanoma cell lines).

SMILES strings stand for the structures. Some of the results follow. Single values are uncertain, as repeats are few or missing.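 Imaging used 1,536-well plates; nuclei positive for cleaved PARP by antibody were divided by total DNA-stained nuclei to yield the apoptosis fraction. Doses for screening kept most cells viable, and cell lines differ markedly in resting and induced cleaved-PARP levels.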

The assay has as its system WM451Lu. Put plainly: cleaved PARP positive nuclei fraction relative to DMSO control; melanoma cells; higher = more apoptosis. The settings on record: library dose: low library concentration; 72 h.
For the compound `Nc1ncn([C@H]2C[C@H](O)[C@@H](CO)O2)c(=O)n1` [decitabine] + CCc1ccc(CCOc2ccc(CC3SC(=O)NC3=O)cc2)nc1 [pioglitazone] (first compound 0.1 µM, partner dose 2 µM), the “cleaved PARP positive nuclei fraction” value amounted to 52.5%. The same measure for `CN1CCN(c2ccc3nc(-c4c(N)c5c(F)cccc5[nH]c4=O)[nH]c3c2)CC1` [Dovitinib] + CN(NC(=O)CC(=O)NN(C)C(=S)c1ccccc1)C(=S)c1ccccc1 [STA4783] (first compound 0.1 µM, partner dose 0.006 µM): 110%; for `Nc1ccn([C@@H]2O[C@H](CO)[C@@H](O)C2(F)F)c(=O)n1` [gemcitabine] + O=c1cc(-c2cccc3c2Sc2ccccc2S3)oc(N2CCOCC2)c1 [KU55933] (first compound 0.0004 µM, partner dose 1 µM): 36%.

In the case of `CCCS(=O)(=O)Nc1ccc(F)c(C(=O)c2c[nH]c3ncc(Cl)cc23)c1F` + COc1cc(Nc2ncc(F)c(Nc3ccc4c(n3)NC(=O)C(C)(C)O4)n2)cc(OC)c1OC [Tamatinib] (first compound 0.08 µM, partner dose 0.4 µM), the “cleaved PARP positive nuclei fraction” value turned out to be 118%. The result for `Cn1c(=O)n(-c2ccc(C(C)(C)C#N)cc2)c2c3cc(-c4cnc5ccccc5c4)ccc3ncc21` + Oc1cc(-c2nc(-c3ccccc3)[nH]c2-c2ccncc2)ccc1Cl [L779450] (first compound 0.004 µM, partner dose 0.2 µM) reads 66.9%; that for `CN1CCN(c2ccc3nc(-c4c(N)c5c(F)cccc5[nH]c4=O)[nH]c3c2)CC1` [Dovitinib] + COc1ccc(COc2ccc(Cc3cnc(N)nc3N)cc2OC)cc1 [GW2580] (first compound 0.1 µM, partner dose 1 µM), 64.4%; that for `C=C(c1ccc(C(=O)O)cc1)c1cc2c(cc1C)C(C)(C)CCC2(C)C` [Bexarotene] + CCc1ccc(CCOc2ccc(CC3SC(=O)NC3=O)cc2)nc1 [pioglitazone] (first compound 2 µM, partner dose 2 µM), 87.3%. The same measure for `Cc1cc(Nc2cc(N3CCN(C)CC3)nc(/C=C/c3ccccc3)n2)n[nH]1` + CC(C)CCN1c2nc(Nc3cc(F)c(O)c(F)c3)ncc2N(C)C(=O)C1C [BID1870] (first compound 0.04 µM, partner dose 0.2 µM): 95.3%; for `CN1CCN(c2ccc3nc(-c4c(N)c5c(F)cccc5[nH]c4=O)[nH]c3c2)CC1` [Dovitinib] + CN(C)S(=O)(=O)c1ccc2c(c1)/C(=C/c1cc3c([nH]1)CCCC3)C(=O)N2 [SU6656] (first compound 0.1 µM, partner dose 0.4 µM): 39.2%; for `CC(C)C[C@H](NC(=O)[C@H](Cc1ccccc1)NC(=O)c1cnccn1)B(O)O` [Bortezomib] + COc1cc2ncnc(Nc3ccc(Oc4ccccc4)cc3)c2cc1OC [SrcI1] (first compound 0.001 µM, partner dose 2 µM): 75.5%. As for `CC(C)C[C@H](NC(=O)[C@H](Cc1ccccc1)NC(=O)c1cnccn1)B(O)O` [Bortezomib] + C[C@@H]1CCN(C(=O)CC#N)C[C@@H]1N(C)c1ncnc2[nH]ccc12 [CP690550] (first compound 0.001 µM, partner dose 1 µM), the “cleaved PARP positive nuclei fraction” value stood at 66.9%. The same measure for `CNC(=O)c1cc(Oc2ccc(NC(=O)Nc3ccc(Cl)c(C(F)(F)F)c3)cc2)ccn1` [sorafenib] + c1cc(-c2cnn3cc(-c4ccc(OCCN5CCCCC5)cc4)cnc23)ccn1 [Dorsomorphin] (first compound 0.4 µM, partner dose 0.4 µM): 64%; for `O=C(O)c1ccc2c(c1)nc(Nc1cccc(Cl)c1)c1ccncc12` + O=C(Nc1cccc(Cl)c1)Nc1ncc(CCNc2ncnc3ccsc23)s1 [SNS314] (first compound 0.4 µM, partner dose 0.0008 µM): 33.5%. The same measure for `CCCS(=O)(=O)Nc1ccc(F)c(C(=O)c2c[nH]c3ncc(Cl)cc23)c1F` + CCc1ccc(CCOc2ccc(CC3SC(=O)NC3=O)cc2)nc1 [pioglitazone] (first compound 0.08 µM, partner dose 2 µM): 33.6%; for `O=C(O)c1ccc2c(c1)nc(Nc1cccc(Cl)c1)c1ccncc12` + CC(C)(C)c1cnc(CSc2cnc(NC(=O)C3CCNCC3)s2)o1 [SNS-032] (first compound 0.4 µM, partner dose 0.01 µM): 116%; for `CN1CCN(c2ccc3nc(-c4c(N)c5c(F)cccc5[nH]c4=O)[nH]c3c2)CC1` [Dovitinib] + NC(=O)Nc1cc(-c2cccc(F)c2)sc1C(=O)N[C@H]1CCCNC1 [AZD7762] (first compound 0.1 µM, partner dose 0.02 µM): 32.5%. The result for `O=C(O)[C@@H]1[O][Sb](=[O])([O][Sb]2(=[O])[O][C@H]([C@H](O)CO)[C@H](O)[C@H](C(=O)O)[O]2)[O][C@H]([C@H](O)CO)[C@@H]1O` (stereo partly drawn) [stibogluconate] + OCCn1cc(-c2cnc3nnn(Cc4ccc5ncccc5c4)c3n2)cn1 [PF04217903] (first compound 2 µM, partner dose 1 µM) reads 227%; that for `CS(=O)(=O)CCNCc1ccc(-c2ccc3ncnc(Nc4ccc(OCc5cccc(F)c5)c(Cl)c4)c3c2)o1` [lapatinib] + COc1ccc(COc2ccc(Cc3cnc(N)nc3N)cc2OC)cc1 [GW2580] (first compound 0.8 µM, partner dose 1 µM), 139%.
